# No constants are given. Whether binding was seen depends on the method and setting. A result given as binding can be weak or reduced; the word gives no strength.
# What was measured:
# [1] = target: Gremlin; experiment: BIAcore, immobilised Gremlin
# [2] = target: Activin receptor II ectodomain; experiment: BIAcore, immobilised ARII ectodomain
# [3] = target: Activin receptor II ectodomain; experiment: BIAcore SPR, Activin receptor II ectodomain immobilised, analyte at 120 nM, response normalised to saturating BMP-2 = 100 %
binding [1],binding [2],binding [3],Binder
binds,binds,binds,BMP-2 D53P (ligand) QAKHKQRKRLKSSCKRHPLYVDFSDVGWNDWIVAPPGYHAFYCHGECPFPLAPHLNSTNHAIVQTLVNSVNSKIPKACCVPTELSAISMLYLDENEKVVLKNYQDMVVEGCGCR
binds,binds,binds,BMP-2 L51P (ligand) QAKHKQRKRLKSSCKRHPLYVDFSDVGWNDWIVAPPGYHAFYCHGECPFPPADHLNSTNHAIVQTLVNSVNSKIPKACCVPTELSAISMLYLDENEKVVLKNYQDMVVEGCGCR

# Source: patent US20070293425A1
